Drawing on article PMC5173319, “Crenactin forms actin-like double helical filaments regulated by arcadin-2” (eLife, 2016), this text covers binding for two molecules.

Protein sequences, listed by entry. Tags and fused reporters are not part of them.
UniProt A3MWN5: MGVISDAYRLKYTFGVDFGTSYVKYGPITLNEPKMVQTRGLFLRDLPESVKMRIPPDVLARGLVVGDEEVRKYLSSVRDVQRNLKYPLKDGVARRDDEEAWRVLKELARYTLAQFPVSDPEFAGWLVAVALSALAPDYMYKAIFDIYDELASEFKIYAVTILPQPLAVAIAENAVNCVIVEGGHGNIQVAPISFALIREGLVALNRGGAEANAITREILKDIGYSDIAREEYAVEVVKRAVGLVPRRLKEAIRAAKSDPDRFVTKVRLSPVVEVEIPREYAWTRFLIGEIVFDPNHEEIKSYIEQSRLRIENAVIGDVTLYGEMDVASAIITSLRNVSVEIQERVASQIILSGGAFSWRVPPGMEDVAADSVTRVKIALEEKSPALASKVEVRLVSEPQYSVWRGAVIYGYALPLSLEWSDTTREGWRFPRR

These are yes or no findings as the source states them, for the method shown. Some binding calls cover weakened binding; strength is not graded here.

Experiment [1] deals with Pyrobaculum calidifontis crenactin (Pyrobaculum calidifontis) (UniProt A3MWN5). The experiment is described as follows: SEC; crenactin and arcadin-2 co-expressed and purified together; size exclusion profile with Coomassie-stained SDS-PAGE; both purified. For orientation: In gel filtration, larger molecules generally elute earlier.
Experiment [2] has the same target. The experiment is described as follows: SPR; crenactin immobilised by amide coupling on CM5 chip (~700 RU), Biacore T200, PBS-0.005% Tween 20, 20°C; arcadin-2 or arcadin-2ΔC in 1:2 dilution series from 2 µM; kinetic fits, Kd = koff/kon; both purified. (Surface plasmon resonance follows binding to a sensor surface in real time, without labels.)

B1: Pyrobaculum calidifontis arcadin-2 (protein, UniProt A3MWN6 1-203)
chain: MDFPKVLLIRHFTEVLGMKYAGEGGEVLWFEEGLNRVAVGIYFTDLYEEAELYKRVGALMGLGASKVFLAVLPDALAFVDPRYFKANGVGLVVVDPAKGVDGVEVKIFARARPAAVEPLKIDAVKAALHEYLASELKRVEESLFEKVRRYVDQRVEEVKRALQAVEEAKRAAPPVQRAAAESAQEPRGGIGENEWVKILRSKR
Regarding B1, the binding result in experiment [1] was “binds”.

B2: arcadin-2 C-terminal truncation mutant (arcadin-2ΔC, residues 1-167) (domain or fragment, UniProt A3MWN6 1-167)
chain: MDFPKVLLIRHFTEVLGMKYAGEGGEVLWFEEGLNRVAVGIYFTDLYEEAELYKRVGALMGLGASKVFLAVLPDALAFVDPRYFKANGVGLVVVDPAKGVDGVEVKIFARARPAAVEPLKIDAVKAALHEYLASELKRVEESLFEKVRRYVDQRVEEVKRALQAVEE
Take B2: in experiment [2], the binding result is listed as “no binding (tested: 2 µM)”.
